Assay results published in patent publication US7807679B2, “Piperazine derivatives and their use in controlling pests” (Syngenta Crop Protection, Inc., priority 2004, dated 2010).
Some entries share one result that the patent states for a list of compounds.

What was measured:
Type in all cases: in vivo
[1] = tested on: Heliothis virescens (Tobacco Budworm); assay: Heliothis virescens egg test on artificial diet; settings: 200 ppm by pipetting; eggs (0-24 h old) on artificial diet; egg mortality, larval mortality, growth regulation after 4 days
Experimental: Eggs (0-24 h old) were placed in 24-well microtiter plate on artificial diet and treated with test solutions at an application rate of 200 ppm by pipetting. After an incubation period of 4 days, samples were checked for egg mortality, larval mortality, and growth regulation. The following compounds gave at least 80% control of Heliothis virescen: • I-3, I-6, I-7, I-26, I-29, I-30, I-47, I-49, I-52, I-53, I-72, I-75, I-417, I-532, I-578, I-785, I-854, I-877, III-49, V-49, XII-49, XIV-26, XIV-49, XV-26, XVI-26, XVII-26, XXIV-2, XXIV-46, XXIV-90, XXIV-93, XXIV-94, XXV-2, XXV-26, XXV-49 and XXV-68.

[2] = tested on: Spodoptera littoralis (Egyptian Cotton Leafworm); assay: Spodoptera littoralis cotton leaf disc spray test; settings: 200 ppm sprayed on cotton leaf discs; 5 L1 larvae; mortality, repellent effect, feeding behaviour, growth regulation 3 days after treatment
Description: Spodoptera littoralis (Egyptian Cotton Leafworm)
Cotton leaf discs were placed on agar in a 24-well microtiter plate and sprayed with test solutions at an application rate of 200 ppm. After drying, the leaf discs were infested with 5 L1 larvae. The samples were checked for mortality, repellent effect, feeding behaviour, and growth regulation 3 days after treatment (DAT). The following compounds gave at least 80% control of Spodoptera littoralis: • I-3, I-26, I-29, I-30, I-49, I-52, I-53, I-75, I-417, I-532, I-578, I-785, I-854, I-877, II-49, III-49, V-49, XII-49, XIV-26, XV-26, XXIV-2, XXIV-46, XXIV-90, XXIV-93, XXIV-94, XXV-26 and XXV-49.

[3] = tested on: Myzus persicae (Green Peach Aphid); assay: Myzus persicae sunflower leaf disc spray test; settings: 200 ppm sprayed on sunflower leaf discs; aphid population of mixed ages; mortality after 6 DAT
Experimental: Sunflower leaf discs were placed on agar in a 24-well microtiter plate and sprayed with test solutions at an application rate of 200 ppm. After drying, the leaf discs were infested with an aphid population of mixed ages. After an incubation period of 6 DAT, samples were checked for mortality. The following compounds gave at least 80% control of Myzus persicae: • I-3, I-26, I-29, […], I-30, I-49, I-52, I-53, I-72, I-75, III-49, V-49, XXIV-46, XXIV-90 and XXIV-94.

SMILES | control of Heliothis virescens [1] | control of Spodoptera littoralis [2] | control of Myzus persicae [3]
COCCCNC(=O)Nc1ccc(Cl)cc1N1CCN(C/C=C/c2ccc(Cl)cc2)CC1 [XIV-49] | at least 80% | – | –
O=C(Nc1cc(Cl)c(Cl)cc1N1CCN(C/C=C/c2ccc(Cl)cc2)CC1)c1ccnc(Cl)c1 [Compound I-854] | at least 80% | at least 80% | –
O=C(Nc1cc(F)c(F)cc1N1CCN(C/C=C/c2ccc(Cl)cc2)CC1)c1ccnc(Cl)c1 [Compound I-785] | at least 80% | at least 80% | –
O=C(Nc1cc(F)c(Cl)cc1N1CCN(C/C=C/c2ccc(Cl)cc2)CC1)c1ccnc(Cl)c1 [Compound I-417] | at least 80% | at least 80% | –
CN(C(=O)c1ccnc(Cl)c1)c1ccccc1N1CCN(C/C=C/c2ccccc2)CC1 [XXV-2] | at least 80% | – | –
COC(=O)Nc1ccc(Cl)cc1N1CCN(C/C=C/c2ccc(Cl)cc2)CC1 [XII-49] | at least 80% | at least 80% | –
O=C(Nc1ccc(Cl)cc1N1CCN(C/C=C/c2ccc(Cl)cc2)CC1)c1ccncc1 [II-49] | – | at least 80% | –
O=C(Nc1c(N2CCN(C/C=C/c3ccc(Cl)cc3)CC2)cc(F)c(F)c1F)c1ccnc(Cl)c1 [Compound I-532] | at least 80% | at least 80% | –
CC(C)NC(=O)Nc1ccc(F)cc1N1CCN(C/C=C/c2ccc(Cl)cc2)CC1 [XVI-26] | at least 80% | – | –
CN(C(=O)c1ccnc(Cl)c1)c1ccc(F)cc1N1CCN(C/C=C/c2ccc(Cl)cc2)CC1 [XXV-26] | at least 80% | at least 80% | –
CN(C(=O)c1ccnc(Cl)c1)c1ccc(Cl)cc1N1CCN(C/C=C/c2ccc(Cl)cc2)CC1 [XXV-49] | at least 80% | at least 80% | –
O=C(Nc1c(Cl)cc(Cl)cc1N1CCN(C/C=C/c2ccc(Cl)cc2)CC1)c1ccnc(Cl)c1 [Compound I-877] | at least 80% | at least 80% | –
O=C(NCCC1OCCO1)Nc1ccc(F)cc1N1CCN(C/C=C/c2ccc(Cl)cc2)CC1 [XVII-26] | at least 80% | – | –
O=C(Nc1ccc(Cl)cc1N1CCN(C/C=C/c2ccc(Cl)cc2)CC1)c1ccnc(F)c1 [Compound V-49] | at least 80% | at least 80% | at least 80%
O=C(Nc1c(F)cc(F)c(F)c1N1CCN(C/C=C/c2ccc(Cl)cc2)CC1)c1ccnc(Cl)c1 [Compound I-578] | at least 80% | at least 80% | –
